Measured values published in paper PMC9714148.
Results are given in words; binding and its absence hold for the method and conditions named. Binding seen in cells or lysates may run through a third protein. Some results given as binding are weak or reduced against the parent protein; the word gives no strength.

The chains behind the UniProt entries cited, without tags or fusion partners.
UniProt P13864: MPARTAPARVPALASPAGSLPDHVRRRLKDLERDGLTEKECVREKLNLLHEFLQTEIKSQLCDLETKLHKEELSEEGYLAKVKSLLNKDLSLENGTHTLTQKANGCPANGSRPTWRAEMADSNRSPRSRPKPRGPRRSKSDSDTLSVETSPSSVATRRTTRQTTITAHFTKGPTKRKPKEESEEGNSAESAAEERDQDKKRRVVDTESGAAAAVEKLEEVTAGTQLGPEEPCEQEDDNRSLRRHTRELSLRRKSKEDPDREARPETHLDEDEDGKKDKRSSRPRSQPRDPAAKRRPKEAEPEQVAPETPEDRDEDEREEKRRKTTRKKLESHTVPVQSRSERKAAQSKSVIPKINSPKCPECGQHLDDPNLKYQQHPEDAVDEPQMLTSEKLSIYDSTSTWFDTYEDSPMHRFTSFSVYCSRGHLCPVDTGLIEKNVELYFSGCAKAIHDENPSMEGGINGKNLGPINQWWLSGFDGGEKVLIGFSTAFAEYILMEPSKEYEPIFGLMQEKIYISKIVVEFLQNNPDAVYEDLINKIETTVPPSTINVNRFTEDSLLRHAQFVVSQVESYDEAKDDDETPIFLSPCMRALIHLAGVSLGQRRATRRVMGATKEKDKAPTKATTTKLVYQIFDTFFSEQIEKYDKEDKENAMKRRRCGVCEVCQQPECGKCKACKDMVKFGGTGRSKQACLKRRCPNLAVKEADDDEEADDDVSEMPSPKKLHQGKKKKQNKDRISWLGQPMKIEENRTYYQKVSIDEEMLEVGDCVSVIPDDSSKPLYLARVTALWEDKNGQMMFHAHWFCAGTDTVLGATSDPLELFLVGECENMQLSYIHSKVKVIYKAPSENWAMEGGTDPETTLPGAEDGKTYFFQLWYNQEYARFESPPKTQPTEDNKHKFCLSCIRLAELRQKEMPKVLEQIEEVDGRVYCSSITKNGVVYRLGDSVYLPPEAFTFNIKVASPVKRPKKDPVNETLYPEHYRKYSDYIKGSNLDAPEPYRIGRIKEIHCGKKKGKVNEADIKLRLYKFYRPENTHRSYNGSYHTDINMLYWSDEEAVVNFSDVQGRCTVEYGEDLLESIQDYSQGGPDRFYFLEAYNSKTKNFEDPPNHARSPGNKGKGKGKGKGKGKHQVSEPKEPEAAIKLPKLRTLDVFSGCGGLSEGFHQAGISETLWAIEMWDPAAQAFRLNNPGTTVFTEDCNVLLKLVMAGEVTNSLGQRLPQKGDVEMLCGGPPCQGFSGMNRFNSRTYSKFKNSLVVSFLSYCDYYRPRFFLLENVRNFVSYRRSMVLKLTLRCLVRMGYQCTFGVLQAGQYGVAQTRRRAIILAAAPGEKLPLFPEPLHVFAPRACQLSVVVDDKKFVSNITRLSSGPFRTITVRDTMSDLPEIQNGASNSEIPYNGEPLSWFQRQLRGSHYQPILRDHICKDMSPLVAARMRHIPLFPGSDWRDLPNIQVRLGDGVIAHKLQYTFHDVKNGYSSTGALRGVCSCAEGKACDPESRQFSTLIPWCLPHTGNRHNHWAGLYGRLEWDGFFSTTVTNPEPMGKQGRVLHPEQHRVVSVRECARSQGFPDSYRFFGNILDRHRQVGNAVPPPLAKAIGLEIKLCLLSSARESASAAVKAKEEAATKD

Assays:
[1] = target: DNMT1 (mouse (endogenous in C2C12)) (UniProt P13864); assay: co-IP; endogenous proteins in lysate of C2C12 cells differentiated for 4 d; IP with 5 ug antibody overnight at 4 °C, Protein A/G PLUS-Agarose 2 h at 4 °C, Western blot; DNA methylases as bait and, reversed, RNA methylases as bait; nonspecific IgG as control
[2] = target: DNMT3B (mouse (endogenous in C2C12)) (UniProt O88509); assay: as above

Row | binding [1] | binding [2] | Substance
1 | binds |  | DNMT3B (from UniProt O88509 1-859) (enzyme)
2 | binds | binds | METTL3 (from UniProt Q8C3P7 1-580) (enzyme)
